Taken from: PubChem BioAssay AID1259405 (NCATS, 2018)
The deposit covers about 50,000 reagents; shown is an unselected part. In the full data, about 4,000 (8%) are marked active. 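Mouse siRNA library applied to hamster cells; one well for each siRNA.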 Entries without a mark were called inactive. The numbers tell different reagents against one gene apart. No sequences are given here.

Purpose: 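Silenced genes that increase secreted GFP made by CHO cells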 (primary screen)
Cells: Chinese hamster CHO-K1 ovary cells with stable secreted eGFP expression
Reagent: single siRNA against mouse genes, 0.8 pmol siRNA per well (2 µl of 400 nM stock)
Timing: 3 days
Detection: 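Percent of the per-plate non-targeting control median for intracellular GFP per well by laser scanning cytometry and for cell viability by ATP luminescence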
Direction: GFP, % of control: higher = more GFP per well, higher productivity; viability (ATP), % of control: higher = more viable cells (more ATP)
Hit rule: 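Called active when intracellular GFP, relative to negative control, is at or above 120%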

Knock-down of Zscan2 #1 came out at: GFP, % of control 66.5; viability (ATP), % of control 51.3.
Against Zscan2 #2 the deposit lists GFP, % of control 72.1; viability (ATP), % of control 68.9.
Zscan2 #3 showed GFP, % of control 181 (active); viability (ATP), % of control 71.1.
After knock-down of Phxr4 #1, the record shows GFP, % of control 117; viability (ATP), % of control 84.6.
With knock-down of Phxr4 #2 the results were GFP, % of control 96.1; viability (ATP), % of control 61.2.
Against Phxr4 #3, the entry reads GFP, % of control 79.3; viability (ATP), % of control 66.1.
Silencing of Immt #1 resulted in: GFP, % of control 60.3; viability (ATP), % of control 72.7.
Knock-down of Immt #2 gave: GFP, % of control 111; viability (ATP), % of control 92.2.
For Immt #3, the entry reads GFP, % of control 115; viability (ATP), % of control 105.
For Cbx4 #1, the entry reads GFP, % of control 60; viability (ATP), % of control 70.2.
Against Cbx4 #2, the entry reads GFP, % of control 120 (active); viability (ATP), % of control 101.
Depletion of Cbx4 #3 resulted in: GFP, % of control 50.2; viability (ATP), % of control 53.9.

2 entries from above, reduced to “viability (ATP), % of control”.
Cbx4 #2 = 101 (active)
Cbx4 #3 = 53.9

The results go on:
After knock-down of Tctn3 #1, the record shows GFP, % of control 80.6; viability (ATP), % of control 65.9.
Depletion of Tctn3 #2 gave: GFP, % of control 105; viability (ATP), % of control 82.4.
Knock-down of Tctn3 #3 came out at: GFP, % of control 85.1; viability (ATP), % of control 98.2.
Cox16 #1 gave GFP, % of control 82.4; viability (ATP), % of control 82.1.
Cox16 #2 scored GFP, % of control 75.9; viability (ATP), % of control 75.8.
Cox16 #3 showed GFP, % of control 69.7; viability (ATP), % of control 89.1.
Rpl39 #1 scored GFP, % of control 60.5; viability (ATP), % of control 51.3.
With knock-down of Rpl39 #2 the results were GFP, % of control 35.2; viability (ATP), % of control 13.2.
After knock-down of Rpl39 #3, the record shows GFP, % of control 66.2; viability (ATP), % of control 54.4.
After knock-down of Zfp472 #1, the screen gave GFP, % of control 69.6; viability (ATP), % of control 57.3.
Zfp472 #2 gave GFP, % of control 70.9; viability (ATP), % of control 73.8.
Zfp472 #3 scored GFP, % of control 96.6; viability (ATP), % of control 87.1.
After knock-down of Bnip2 #1, the screen gave GFP, % of control 81.2; viability (ATP), % of control 54.4.
Depletion of Bnip2 #2 gave: GFP, % of control 71.5; viability (ATP), % of control 74.7.
Depletion of Bnip2 #3 resulted in: GFP, % of control 109; viability (ATP), % of control 114.
